Experimental findings from patent US6900050 (ROCKEFELLER UNIVERSITY, dated 2005) are described below.

By UniProt entry, the sequences of proteins in these tests, tags left out. Where a name states a change or a piece, a line headed by the entry shows the natural chain unless it says otherwise.
UniProt P0A7C2: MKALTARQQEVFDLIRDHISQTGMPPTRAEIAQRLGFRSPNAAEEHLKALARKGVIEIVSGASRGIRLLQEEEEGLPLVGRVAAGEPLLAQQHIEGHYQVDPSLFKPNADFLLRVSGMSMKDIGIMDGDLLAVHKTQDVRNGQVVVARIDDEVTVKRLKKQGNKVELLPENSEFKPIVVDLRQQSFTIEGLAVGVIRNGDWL

These are yes or no findings as the source states them, for the method shown. For part of these data: In cells and extracts the contact can be indirect. Some results given as binding are weak or reduced against the parent protein; the word gives no strength. Where a sequence is shown, tags or fusion partners need not be part of it.

In test [1] the target is LexA DNA binding domain-TRAF1 fusion protein (bait plasmid pEG202-TRAF1) (UniProt P0A7C2). Briefly: yeast two-hybrid, b-gal activity.
In test [2] the target is LexA DNA binding domain-TRAF2 fusion protein (UniProt P0A7C2). Briefly: yeast two-hybrid, b-gal activity.
In test [3] the target is T1, GST-TRIP fusion protein (GST-wild type TRIP, pEBG vector, expressed in 293 cells) (mouse) (UniProt Q8VIG6).
T1 sequence: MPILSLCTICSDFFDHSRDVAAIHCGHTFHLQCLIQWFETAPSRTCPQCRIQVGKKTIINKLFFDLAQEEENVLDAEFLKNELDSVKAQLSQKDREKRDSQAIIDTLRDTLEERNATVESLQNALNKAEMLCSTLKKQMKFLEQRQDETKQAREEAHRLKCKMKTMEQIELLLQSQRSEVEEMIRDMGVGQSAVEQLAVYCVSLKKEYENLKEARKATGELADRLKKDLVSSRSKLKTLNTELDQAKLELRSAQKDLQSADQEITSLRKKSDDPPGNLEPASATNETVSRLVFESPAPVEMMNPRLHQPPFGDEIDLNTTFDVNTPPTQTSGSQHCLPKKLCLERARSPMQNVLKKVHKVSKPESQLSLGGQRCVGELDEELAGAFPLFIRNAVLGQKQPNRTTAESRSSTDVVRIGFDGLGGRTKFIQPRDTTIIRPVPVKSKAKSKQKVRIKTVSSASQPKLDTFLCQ
Briefly: coprecipitation from transfected 293 cells.

B1: mutant TRIP lacking the N-terminal RING finger motif (residues 56-275, putative coiled-coil region) fused to the transcription activation domain (protein, not shown: large carriers)
chain: KTIINKLFFDLAQEEENVLDAEFLKNELDSVKAQLSQKDREKRDSQAIIDTLRDTLEERNATVESLQNALNKAEMLCSTLKKQMKFLEQRQDETKQAREEAHRLKCKMKTMEQIELLLQSQRSEVEEMIRDMGVGQSAVEQLAVYCVSLKKEYENLKEARKATGELADRLKKDLVSSRSKLKTLNTELDQAKLELRSAQKDLQSADQEITSLRKKSDDPP
In the case of B1, the binding entry in test [1] and in test [2] was “binds” throughout.

B2: TRAF1 expressed in 293 cells (protein, UniProt P39428 1-409, looked up)
chain: MASSSAPDENEFQFGCPPAPCQDPSEPRVLCCTACLSENLRDDEDRICPKCRADNLHPVSPGSPLTQEKVHSDVAEAEIMCPFAGVGCSFKGSPQSMQEHEATSQSSHLYLLLAVLKEWKSSPGSNLGSAPMALERNLSELQLQAAVEATGDLEVDCYRAPCCESQEELALQHLVKEKLLAQLEEKLRVFANIVAVLNKEVEASHLALAASIHQSQLDREHILSLEQRVVELQQTLAQKDQVLGKLEHSLRLMEEASFDGTFLWKITNVTKRCHESVCGRTVSLFSPAFYTAKYGYKLCLRLYLNGDGSGKKTHLSLFIVIMRGEYDALLPWPFRNKVTFMLLDQNNREHAIDAFRPDLSSASFQRPQSETNVASGCPLFFPLSKLQSPKHAYVKDDTMFLKCIVDTSA
As to B2, the binding result in test [3] is “binds”.

B3: mutant TRIP comprising the N-terminal half of the protein (residues 1-275) fused to the transcription activation domain (protein, not shown: large carriers)
chain: MPILSLCTICSDFFDHSRDVAAIHCGHTFHLQCLIQWFETAPSRTCPQCRIQVGKKTIINKLFFDLAQEEENVLDAEFLKNELDSVKAQLSQKDREKRDSQAIIDTLRDTLEERNATVESLQNALNKAEMLCSTLKKQMKFLEQRQDETKQAREEAHRLKCKMKTMEQIELLLQSQRSEVEEMIRDMGVGQSAVEQLAVYCVSLKKEYENLKEARKATGELADRLKKDLVSSRSKLKTLNTELDQAKLELRSAQKDLQSADQEITSLRKKSDDPP
Take B3: the binding entry in test [1] and in test [2] was “binds” throughout.

B4: TRIP residues 56-185 fused to the transcription activation domain (protein, not shown: large carriers)
chain: KTIINKLFFDLAQEEENVLDAEFLKNELDSVKAQLSQKDREKRDSQAIIDTLRDTLEERNATVESLQNALNKAEMLCSTLKKQMKFLEQRQDETKQAREEAHRLKCKMKTMEQIELLLQSQRSEVEEMIR
As for B4, the binding result in test [1] and in test [2] was “binds” each time.

B5: TRIP residues 186-275 fused to the transcription activation domain (protein, not shown: large carriers)
chain: DMGVGQSAVEQLAVYCVSLKKEYENLKEARKATGELADRLKKDLVSSRSKLKTLNTELDQAKLELRSAQKDLQSADQEITSLRKKSDDPP
On to B5, for which the binding result in test [1] and in test [2] was “binds” in each case.
